{"source": "the supplement of paper PMC8616043", "note": "Structures can show the parent of a compound that is named as a salt. This is one part of the list. Repeats in this data set agree poorly, so a single value says little.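 Human U-2 OS cells stably expressing a GFP sensor with a nuclear import signal and classical export signal were transfected to produce PR50, a 50-repeat proline–arginine dipeptide from ALS/FTD gene C9ORF72. Nuclear-minus-cytoplasm GFP was scaled from DMSO (low) to PR-only (high), scored against plate test wells; strongly negative scores marked PR-reversing hits.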", "data": [{"system": "U-2 OS NCT-C biosensor cells expressing PR50", "experiment": "Z-score of normalised NCT-C biosensor translocation index in PR50-expressing cells; higher = more nuclear biosensor (more disrupted nuclear export)", "settings": "3 µM; 24 h", "values": [{"smiles": "Oc1ccc(C2CNCCc3c2cc(O)c(O)c3Cl)cc1", "note": "(stereo not drawn) [Fenoldopam Mesylate]", "Z-score": "inactive: 0.134"}, {"smiles": "Oc1ccc(C2CNCCc3c2cc(O)c(O)c3Cl)cc1", "note": "(stereo not drawn) [Fenoldopam monohydrobromid e]", "Z-score": "inactive: 0.0955"}, {"smiles": "CC(C(=O)O)c1cccc(Oc2ccccc2)c1", "note": "(stereo not drawn) [Fenoprofen calcium salt dihydrate]", "Z-score": "inactive: 0.569"}, {"smiles": "O=C1NC(=O)C(c2ccccc2[N+](=O)[O-])=C1Nc1ccc(O)c(Cl)c1", "Z-score": "inactive: 0.936"}, {"smiles": "COc1cc2c(c(OC)c1OC)-c1c(cc3c(c1OC)OCO3)C[C@H](C)[C@](C)(O)C2", "note": "[Gomisin A]", "Z-score": "inactive: 0.408"}, {"smiles": "CC1(C)CCC(NC(=O)[C@@H](N)CCC(=O)O)CC1", "Z-score": "inactive: -0.589"}, {"smiles": "O=C(O)C1CCNCC1", "note": "[Isonipecotic acid]", "Z-score": "inactive: -0.217"}, {"smiles": "CC1(C)CCC=[N+]1[O-]", "note": "[5,5-Dimethyl-1- pyrroline-N-oxide]", "Z-score": "inactive: 0.787"}, {"smiles": "C=CC(N)CCC(=O)O", "note": "(racemic) [(±)-gamma-Vinyl GABA]", "Z-score": "inactive: -0.484"}, {"smiles": "OC[C@@H](O)[C@@H](O)[C@H](O)[C@H](O)CO", "note": "[Mannitol]", "Z-score": "inactive: 0.037"}, {"smiles": "CCCCN1C[C@H](O)[C@@H](O)[C@H](O)[C@H]1CO", "note": "[Miglustat (N-Butyldeoxynojirimycin·HCl)]", "Z-score": "inactive: 0.0572"}, {"smiles": "C[C@@H](O)[C@H]1C(=O)N2C(C(=O)O)=C(SCCNC=N)C[C@H]12", "note": "[Imipenem]", "Z-score": "inactive: -0.215"}, {"smiles": "C[C@@H](O)[C@H]1C(=O)N2C(C(=O)O)=C(SCCNC=N)C[C@H]12", "note": "[Imipenem monohydrate]", "Z-score": "inactive: -0.729"}, {"smiles": "c1ccc2c(c1)CCCC2C1=NCCN1", "note": "(stereo not drawn) [Tetrahydrozoline·HCl]", "Z-score": "inactive: -0.342"}, {"smiles": "c1ccc2c(c1)CCCC2C1=NCCN1", "note": "(stereo not drawn) [Tetrahydrozoline hydrochloride]", "Z-score": "inactive: -0.396"}, {"smiles": "CN(C)C[C@H](O)Cn1c2ccc(Br)cc2c2cc(Br)ccc21", "note": "(racemic) [Wiskostatin]", "Z-score": "inactive: 0.462"}, {"smiles": "CC(C)(C)C(=O)OCOC(=O)[C@@H]1N2C(=O)[C@@H](/N=C/N3CCCCCC3)[C@H]2SC1(C)C", "note": "[Pivmecillinam]", "Z-score": "inactive: -0.124"}, {"smiles": "N[C@@H](CC(=O)O)C(=O)O", "note": "[L-Aspartic acid]", "Z-score": "inactive: -0.00259"}, {"smiles": "C1N2CN3CN1CN(C2)C3", "note": "[Methenamine Hippurate]", "Z-score": "inactive: -0.265"}, {"smiles": "CCCCCN(C)CCC(O)(P(=O)(O)O)P(=O)(O)O", "note": "[Ibandronate sodium]", "Z-score": "inactive: -1.7"}, {"smiles": "C=C(C)[C@@H]1CC[C@]2(C(=O)O)CC[C@]3(C)[C@H](CC[C@@H]4[C@@]5(C)CC[C@H](O)C(C)(C)[C@@H]5CC[C@]43C)[C@@H]12", "note": "[Betulinic acid]", "Z-score": "inactive: -1.16"}, {"smiles": "O=C(/C=C/c1ccc(O)c(O)c1)c1ccc(O[C@@H]2O[C@H](CO)[C@@H](O)[C@H](O)[C@H]2O)c(O)c1O", "note": "[Marein]", "Z-score": "inactive: -0.177"}, {"smiles": "CC(C)=CCC[C@](C)(O)[C@H]1CC[C@]2(C)[C@@H]1CC[C@@H]1[C@@]3(C)CCC(=O)C(C)(C)[C@@H]3CC[C@]12C", "note": "[Dipterocarpol]", "Z-score": "inactive: -0.58"}, {"smiles": "CN=c1nc(-c2ccccc2)n(-c2ccccc2)s1", "Z-score": "inactive: -0.916"}, {"smiles": "C[N+](C)(C)CCOP(=O)(O)OP(=O)([O-])OC[C@H]1O[C@@H](n2ccc(N)nc2=O)[C@H](O)[C@@H]1O", "note": "[Cytidine 5'- diphosphocholine sodium salt hydrate]", "Z-score": "inactive: -0.359"}, {"smiles": "CC(C)c1nc(N(C)S(C)(=O)=O)nc(-c2ccc(F)cc2)c1/C=C/[C@@H](O)C[C@@H](O)CC(=O)O", "note": "[Rosuvastatin Calcium]", "Z-score": "inactive: -0.396"}, {"smiles": "CC(C)c1nc(N(C)S(C)(=O)=O)nc(-c2ccc(F)cc2)c1/C=C/[C@@H](O)C[C@@H](O)CC(=O)O", "note": "[Rosuvastatin calcium]", "Z-score": "inactive: -0.229"}, {"smiles": "C=C(CC)C(=O)c1ccc(OCC(=O)O)c(Cl)c1Cl", "note": "[Ethacrynic Acid]", "Z-score": "inactive: 3.71"}, {"smiles": "CCOC(=O)COc1ccc2c(c1)C[C@@H](NC[C@H](O)c1cccc(Cl)c1)CC2", "Z-score": "inactive: -0.186"}, {"smiles": "CCN(CC)CCCC(C)Nc1ccnc2cc(Cl)ccc12", "note": "(stereo not drawn) [Chloroquine Diphosphate]", "Z-score": "inactive: 1.17"}, {"smiles": "CCN(CC)CCCC(C)Nc1ccnc2cc(Cl)ccc12", "note": "(stereo not drawn) [Chloroquine diphosphate]", "Z-score": "inactive: -0.815"}, {"smiles": "CCNC(=O)[C@H]1O[C@@H](n2cnc3c(N)nc(NCCc4ccc(CCC(=O)O)cc4)nc32)[C@H](O)[C@@H]1O", "Z-score": "inactive: -0.181"}, {"smiles": "O=C(COc1cccc2c(=O)[nH]ccc12)c1ccccc1", "Z-score": "inactive: -0.845"}, {"smiles": "O=C(O)Cn1c(C(=O)Nc2nc(-c3ccccc3Cl)cs2)cc2ccccc21", "Z-score": "inactive: -0.0595"}, {"smiles": "C[C@](N)(Cc1ccc(O)cc1)C(=O)O", "note": "[L-alpha-Methyl-p- tyrosine]", "Z-score": "inactive: -0.121"}, {"smiles": "CC(C)NCC(O)COc1cccc2ccccc12", "note": "(racemic) [(±)-Propranolol hydrochloride]", "Z-score": "inactive: 1.23"}, {"smiles": "CO[C@H]1/C=C/O[C@@]2(C)Oc3c(C)c(O)c4c(O)c(c(/C=N/N5CCN(C6CCCC6)CC5)c(O)c4c3C2=O)NC(=O)/C(C)=C\\C=C\\[C@H](C)[C@H](O)[C@@H](C)[C@@H](O)[C@@H](C)[C@H](OC(C)=O)[C@@H]1C", "note": "[Rifapentine]", "Z-score": "inactive: -0.38"}, {"smiles": "CN1CCC(=C2c3ccccc3C=Cc3ccccc32)CC1", "note": "[Cyproheptadine·HCl Sesquihydrate]", "Z-score": "inactive: 0.808"}, {"smiles": "CN1CCC(=C2c3ccccc3C=Cc3ccccc32)CC1", "note": "[Cyproheptadine hydrochloride]", "Z-score": "inactive: 0.0913"}, {"smiles": "NCC(O)C1CCCCCCC1", "note": "(stereo not drawn) [2-Cyclooctyl-2- hydroxyethylamin e hydrochloride]", "Z-score": "inactive: 0.419"}, {"smiles": "C[C@H]1O[C@H](O[C@H]2[C@H](O)[C@@H](O)[C@@H](O[C@H]3[C@H](O)[C@@H](O)C(O)O[C@@H]3CO)O[C@@H]2CO)[C@H](O)[C@@H](O)[C@@H]1N[C@H]1C=C(CO)[C@@H](O)[C@H](O)[C@H]1O", "note": "(stereo partly drawn) [Acarbose]", "Z-score": "inactive: 0.449"}, {"smiles": "CC(C)(C=O)Cc1cc(C(C)(C)C)c(O)c(C(C)(C)C)c1", "Z-score": "inactive: 3.25"}, {"smiles": "NNCCc1ccccc1", "note": "[Phenelzine sulfate salt]", "Z-score": "inactive: -0.0387"}, {"smiles": "NNCCc1ccccc1", "note": "[Phenelzine Sulfate]", "Z-score": "inactive: -0.0932"}, {"smiles": "NC1(C(=O)O)CCCCC1", "note": "[1-Amino-1- cyclohexane carboxylic acid hydrochloride]", "Z-score": "inactive: 0.314"}, {"smiles": "CC(=O)Nc1ccc(C(=O)Nc2ccccc2N)cc1", "Z-score": "active: -3.21"}, {"smiles": "COc1cc2c(NC3CCN(C(C)C)CC3)nc(C3CCCCC3)nc2cc1OCCCN1CCCC1", "Z-score": "inactive: -1.43"}, {"smiles": "CC(=O)S[C@@H]1CC2=CC(=O)CC[C@]2(C)[C@H]2CC[C@@]3(C)[C@@H](CC[C@@]34CCC(=O)O4)[C@H]12", "note": "[Spironolactone]", "Z-score": "inactive: -0.483"}, {"smiles": "CC(C)(C)NCC(O)COc1cccc2[nH]c(=O)[nH]c12", "note": "(racemic)", "Z-score": "inactive: 0.655"}, {"smiles": "CC(C)c1c(C(=O)Nc2ccccc2)c(-c2ccccc2)c(-c2ccc(F)cc2)n1CC[C@@H](O)C[C@@H](O)CC(=O)O", "note": "[Atorvastatin Calcium]", "Z-score": "inactive: -0.247"}, {"smiles": "CC(=O)OCC(=O)[C@@]1(O)CC[C@H]2[C@@H]3CCC4=CC(=O)CC[C@]4(C)[C@H]3[C@@H](O)C[C@@]21C", "note": "[Hydrocortisone Acetate]", "Z-score": "inactive: -0.05"}, {"smiles": "CN(C)CCC(c1ccc(Cl)cc1)c1ccccn1", "note": "(racemic) [(±)-  Chlorpheniramine maleate]", "Z-score": "inactive: -0.544"}, {"smiles": "CCN[C@H]1CN(CCCOC)S(=O)(=O)c2sc(S(N)(=O)=O)cc21", "note": "[Brinzolamide]", "Z-score": "inactive: -0.765"}, {"smiles": "NS(=O)(=O)c1cc(C2(O)NC(=O)c3ccccc32)ccc1Cl", "note": "(stereo not drawn) [Chlorthalidone]", "Z-score": "inactive: 0.299"}, {"smiles": "C=CC(N)CCC(=O)O", "note": "(stereo not drawn) [Vigabatrin]", "Z-score": "inactive: -0.965"}, {"smiles": "COc1ccc(-c2cc(=O)c3c(O)c(OC)c(OC)cc3o2)cc1O", "note": "[Eupatorin]", "Z-score": "inactive: 0.244"}, {"smiles": "CC(=O)OCC(=O)[C@@]1(O)CC[C@H]2[C@@H]3CCC4=CC(=O)CC[C@]4(C)[C@@]3(F)[C@@H](O)C[C@@]21C", "note": "[Fludrocortisone Acetate]", "Z-score": "inactive: 1.51"}, {"smiles": "O=C(O)CCCCCCCC(=O)O", "note": "[Azelaic Acid]", "Z-score": "inactive: -0.537"}, {"smiles": "O=C(O)CCCCCCCC(=O)O", "note": "[Azelaic acid]", "Z-score": "inactive: 0.477"}, {"smiles": "CC(C)c1cc(/C=C(\\C#N)C(=O)NCCCc2ccccc2)cc(C(C)C)c1O", "Z-score": "inactive: 0.0839"}, {"smiles": "CC(=Cc1ccc(C(=O)O)cc1)c1ccc2c(c1)C(C)(C)CCC2(C)C", "Z-score": "inactive: -0.892"}, {"smiles": "O=C(C(c1ccccc1)c1ccccc1)N1CCN(CC(O)COc2cccc3ncccc23)CC1", "note": "(stereo not drawn) [Dofequidar fumarate]", "Z-score": "inactive: -0.159"}, {"smiles": "Cc1ccc2c(c1CCC(=O)O)CC[C@@H](NS(=O)(=O)c1ccc(Cl)cc1)C2", "note": "[Terutroban]", "Z-score": "inactive: 0.895"}, {"smiles": "Cc1ccc(C(=O)c2ccc(CC(=O)O)n2C)cc1", "note": "[Tolmetin sodium dihydrate]", "Z-score": "inactive: -0.35"}, {"smiles": "COC(=O)Nc1nc2cc(C(=O)c3cccs3)ccc2[nH]1", "note": "[Nocodazole]", "Z-score": "inactive: 0.426"}, {"smiles": "O=C(/C=C/C#Cc1cccc(NS(=O)(=O)c2ccccc2)c1)NO", "note": "[Oxamflatin]", "Z-score": "inactive: 2.85"}, {"smiles": "Cc1cn[nH]c1", "note": "[4-Methylpyrazole hydrochloride]", "Z-score": "inactive: -0.836"}, {"smiles": "Cc1cn[nH]c1", "note": "[Fomepizole]", "Z-score": "inactive: 1.96"}]}]}
